Laboratory results as given in the supplement of paper PMC6411743.
± gives the standard deviation of the averaged measurements. The list shows a part of the results, in another mix than the full data.

By UniProt entry, the sequences of proteins in these tests, tags left out. Where a name states a change or a piece, a line headed by the entry shows the natural chain unless it says otherwise.
UniProt Q9BX70: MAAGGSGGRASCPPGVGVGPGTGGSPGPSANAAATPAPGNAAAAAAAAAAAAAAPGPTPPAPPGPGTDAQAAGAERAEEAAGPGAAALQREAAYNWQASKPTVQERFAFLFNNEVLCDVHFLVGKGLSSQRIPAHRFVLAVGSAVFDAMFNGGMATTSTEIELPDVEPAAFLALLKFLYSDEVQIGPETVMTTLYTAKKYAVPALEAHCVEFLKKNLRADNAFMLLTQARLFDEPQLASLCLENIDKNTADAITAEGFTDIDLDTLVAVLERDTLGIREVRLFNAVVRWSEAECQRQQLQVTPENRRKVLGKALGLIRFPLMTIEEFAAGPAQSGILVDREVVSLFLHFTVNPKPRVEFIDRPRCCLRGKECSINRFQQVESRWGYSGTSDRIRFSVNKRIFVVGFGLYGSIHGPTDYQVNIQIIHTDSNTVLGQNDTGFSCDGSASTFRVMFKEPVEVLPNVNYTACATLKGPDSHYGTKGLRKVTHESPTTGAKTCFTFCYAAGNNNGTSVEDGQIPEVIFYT
UniProt Q9BUB5: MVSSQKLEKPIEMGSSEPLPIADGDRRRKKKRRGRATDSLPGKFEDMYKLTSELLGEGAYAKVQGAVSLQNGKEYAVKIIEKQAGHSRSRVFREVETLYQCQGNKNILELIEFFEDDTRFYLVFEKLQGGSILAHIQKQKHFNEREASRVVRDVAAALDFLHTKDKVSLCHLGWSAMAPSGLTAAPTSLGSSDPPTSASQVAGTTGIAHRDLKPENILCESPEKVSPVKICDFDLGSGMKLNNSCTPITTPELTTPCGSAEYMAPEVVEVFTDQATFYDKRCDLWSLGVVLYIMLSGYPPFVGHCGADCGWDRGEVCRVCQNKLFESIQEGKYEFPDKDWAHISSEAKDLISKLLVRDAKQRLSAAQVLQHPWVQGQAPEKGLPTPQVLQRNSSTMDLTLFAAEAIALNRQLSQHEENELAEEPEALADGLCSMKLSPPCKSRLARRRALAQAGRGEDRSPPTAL
UniProt Q9BRD0: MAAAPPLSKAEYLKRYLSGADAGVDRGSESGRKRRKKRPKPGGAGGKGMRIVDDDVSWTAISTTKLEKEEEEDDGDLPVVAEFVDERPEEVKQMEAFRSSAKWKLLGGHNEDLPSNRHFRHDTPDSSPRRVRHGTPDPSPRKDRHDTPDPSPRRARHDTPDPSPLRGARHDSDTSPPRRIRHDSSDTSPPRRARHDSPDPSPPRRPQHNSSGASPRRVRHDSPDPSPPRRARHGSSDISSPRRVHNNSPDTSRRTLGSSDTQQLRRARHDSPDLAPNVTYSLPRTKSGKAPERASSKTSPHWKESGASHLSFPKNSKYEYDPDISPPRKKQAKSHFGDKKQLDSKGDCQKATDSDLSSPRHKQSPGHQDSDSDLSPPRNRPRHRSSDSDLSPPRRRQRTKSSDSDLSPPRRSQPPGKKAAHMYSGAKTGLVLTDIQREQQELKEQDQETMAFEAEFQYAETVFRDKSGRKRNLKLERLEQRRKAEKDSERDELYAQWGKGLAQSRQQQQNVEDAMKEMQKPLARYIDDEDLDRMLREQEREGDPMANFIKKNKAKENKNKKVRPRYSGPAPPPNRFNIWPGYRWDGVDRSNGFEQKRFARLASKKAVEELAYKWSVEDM
UniProt Q99766: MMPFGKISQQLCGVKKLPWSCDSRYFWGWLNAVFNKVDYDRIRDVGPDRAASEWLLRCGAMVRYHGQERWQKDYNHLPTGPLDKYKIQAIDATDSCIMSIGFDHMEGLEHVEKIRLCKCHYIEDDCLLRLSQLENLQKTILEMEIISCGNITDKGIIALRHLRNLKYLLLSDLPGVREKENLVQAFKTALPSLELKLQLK
UniProt Q9BPW8: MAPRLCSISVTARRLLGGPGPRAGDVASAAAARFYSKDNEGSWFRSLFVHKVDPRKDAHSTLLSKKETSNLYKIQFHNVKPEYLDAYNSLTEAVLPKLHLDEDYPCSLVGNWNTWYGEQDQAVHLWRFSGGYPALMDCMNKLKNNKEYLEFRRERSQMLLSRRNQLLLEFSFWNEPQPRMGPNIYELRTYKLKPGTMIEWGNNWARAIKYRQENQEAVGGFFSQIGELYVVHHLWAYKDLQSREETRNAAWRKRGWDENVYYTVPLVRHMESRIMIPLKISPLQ
UniProt Q9BVW5: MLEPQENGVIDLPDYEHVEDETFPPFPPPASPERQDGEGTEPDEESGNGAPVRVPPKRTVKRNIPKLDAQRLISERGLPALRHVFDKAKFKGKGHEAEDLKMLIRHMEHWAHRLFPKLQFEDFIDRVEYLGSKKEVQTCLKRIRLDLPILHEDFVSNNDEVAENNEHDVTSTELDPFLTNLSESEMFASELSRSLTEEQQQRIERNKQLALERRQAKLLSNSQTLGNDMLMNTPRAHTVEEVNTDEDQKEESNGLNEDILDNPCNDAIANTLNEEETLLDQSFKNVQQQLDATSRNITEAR
UniProt Q99523, whole entry: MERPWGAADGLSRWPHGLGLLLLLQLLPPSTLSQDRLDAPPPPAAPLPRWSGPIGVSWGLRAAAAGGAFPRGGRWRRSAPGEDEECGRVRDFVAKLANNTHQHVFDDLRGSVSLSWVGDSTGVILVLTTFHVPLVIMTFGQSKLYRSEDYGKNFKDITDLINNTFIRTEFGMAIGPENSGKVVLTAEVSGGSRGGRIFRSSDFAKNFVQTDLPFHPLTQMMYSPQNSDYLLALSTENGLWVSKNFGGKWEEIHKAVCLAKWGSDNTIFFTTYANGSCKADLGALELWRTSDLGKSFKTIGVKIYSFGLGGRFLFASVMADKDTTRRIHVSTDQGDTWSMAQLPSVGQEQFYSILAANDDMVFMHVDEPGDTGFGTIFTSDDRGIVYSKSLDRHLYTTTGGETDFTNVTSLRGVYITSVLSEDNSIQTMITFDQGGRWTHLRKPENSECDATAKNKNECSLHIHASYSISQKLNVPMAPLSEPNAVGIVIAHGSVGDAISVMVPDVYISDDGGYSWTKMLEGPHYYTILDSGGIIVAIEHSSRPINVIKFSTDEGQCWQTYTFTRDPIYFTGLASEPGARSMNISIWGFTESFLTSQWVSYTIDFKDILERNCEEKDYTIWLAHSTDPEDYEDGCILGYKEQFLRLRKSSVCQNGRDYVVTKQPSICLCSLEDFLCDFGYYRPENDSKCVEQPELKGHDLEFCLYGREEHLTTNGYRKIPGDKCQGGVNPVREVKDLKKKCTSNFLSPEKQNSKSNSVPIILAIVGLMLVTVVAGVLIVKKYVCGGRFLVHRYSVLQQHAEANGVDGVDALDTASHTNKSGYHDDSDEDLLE
UniProt Q9BUL5: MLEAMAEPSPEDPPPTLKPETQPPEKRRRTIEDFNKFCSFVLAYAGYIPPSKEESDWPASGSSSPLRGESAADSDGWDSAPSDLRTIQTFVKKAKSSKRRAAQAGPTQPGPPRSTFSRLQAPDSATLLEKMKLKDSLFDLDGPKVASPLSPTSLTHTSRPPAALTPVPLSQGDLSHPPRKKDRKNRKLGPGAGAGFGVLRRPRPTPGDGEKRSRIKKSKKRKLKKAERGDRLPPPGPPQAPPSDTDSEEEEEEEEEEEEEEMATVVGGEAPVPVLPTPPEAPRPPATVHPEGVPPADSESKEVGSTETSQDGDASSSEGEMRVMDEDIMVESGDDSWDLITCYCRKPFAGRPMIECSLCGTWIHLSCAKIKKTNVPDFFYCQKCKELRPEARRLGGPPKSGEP
UniProt Q99497, whole entry: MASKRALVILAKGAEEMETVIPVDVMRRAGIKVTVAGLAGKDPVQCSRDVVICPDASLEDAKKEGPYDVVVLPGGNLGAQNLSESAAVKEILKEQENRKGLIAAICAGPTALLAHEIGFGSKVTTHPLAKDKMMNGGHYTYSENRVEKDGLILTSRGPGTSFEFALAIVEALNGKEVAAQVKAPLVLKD
UniProt Q9BZM5, whole entry: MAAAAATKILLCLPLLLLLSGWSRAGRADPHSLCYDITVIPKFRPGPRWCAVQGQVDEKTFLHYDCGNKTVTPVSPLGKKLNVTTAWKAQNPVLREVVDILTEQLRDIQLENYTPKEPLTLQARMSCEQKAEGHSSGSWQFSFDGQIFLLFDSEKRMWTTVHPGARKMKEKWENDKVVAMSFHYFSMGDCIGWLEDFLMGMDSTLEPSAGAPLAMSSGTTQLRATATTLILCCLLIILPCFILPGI
UniProt Q9BQS8: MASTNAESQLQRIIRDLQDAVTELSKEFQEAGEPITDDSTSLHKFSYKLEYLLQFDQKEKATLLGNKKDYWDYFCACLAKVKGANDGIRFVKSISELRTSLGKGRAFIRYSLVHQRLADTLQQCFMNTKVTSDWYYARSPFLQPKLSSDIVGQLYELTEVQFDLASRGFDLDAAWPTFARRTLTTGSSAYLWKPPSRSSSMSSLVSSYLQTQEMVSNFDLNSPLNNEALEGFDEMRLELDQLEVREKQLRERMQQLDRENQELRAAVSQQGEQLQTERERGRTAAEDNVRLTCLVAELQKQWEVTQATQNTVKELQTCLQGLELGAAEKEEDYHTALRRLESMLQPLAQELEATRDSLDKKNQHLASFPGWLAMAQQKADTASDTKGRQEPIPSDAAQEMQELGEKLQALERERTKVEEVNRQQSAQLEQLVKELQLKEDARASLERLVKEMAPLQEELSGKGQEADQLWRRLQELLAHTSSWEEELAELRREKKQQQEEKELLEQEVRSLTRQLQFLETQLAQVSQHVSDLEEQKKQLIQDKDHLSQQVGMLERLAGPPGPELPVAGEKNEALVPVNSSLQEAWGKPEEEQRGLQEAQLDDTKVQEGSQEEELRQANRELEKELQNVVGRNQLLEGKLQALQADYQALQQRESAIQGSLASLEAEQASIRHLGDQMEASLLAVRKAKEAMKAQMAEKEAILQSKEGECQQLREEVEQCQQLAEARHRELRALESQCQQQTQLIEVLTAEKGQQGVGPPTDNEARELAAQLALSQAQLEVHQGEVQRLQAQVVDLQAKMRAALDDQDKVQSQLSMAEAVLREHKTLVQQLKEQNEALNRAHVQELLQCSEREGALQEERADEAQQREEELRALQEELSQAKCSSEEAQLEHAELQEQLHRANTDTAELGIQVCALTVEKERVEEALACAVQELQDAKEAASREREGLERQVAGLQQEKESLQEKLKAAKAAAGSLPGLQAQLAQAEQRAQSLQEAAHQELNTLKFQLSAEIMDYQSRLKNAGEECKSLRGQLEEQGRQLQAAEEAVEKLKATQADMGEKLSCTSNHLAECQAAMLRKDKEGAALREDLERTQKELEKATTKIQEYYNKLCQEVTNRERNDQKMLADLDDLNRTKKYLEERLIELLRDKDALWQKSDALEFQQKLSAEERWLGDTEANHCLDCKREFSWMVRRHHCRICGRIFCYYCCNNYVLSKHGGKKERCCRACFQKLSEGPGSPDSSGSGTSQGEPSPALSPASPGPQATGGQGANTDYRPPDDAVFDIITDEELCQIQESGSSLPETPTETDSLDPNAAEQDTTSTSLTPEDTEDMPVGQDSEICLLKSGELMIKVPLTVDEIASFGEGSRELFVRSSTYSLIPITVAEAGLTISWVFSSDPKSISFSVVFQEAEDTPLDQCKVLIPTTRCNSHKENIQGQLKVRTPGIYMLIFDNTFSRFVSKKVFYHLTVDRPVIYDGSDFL
UniProt Q9BRZ2: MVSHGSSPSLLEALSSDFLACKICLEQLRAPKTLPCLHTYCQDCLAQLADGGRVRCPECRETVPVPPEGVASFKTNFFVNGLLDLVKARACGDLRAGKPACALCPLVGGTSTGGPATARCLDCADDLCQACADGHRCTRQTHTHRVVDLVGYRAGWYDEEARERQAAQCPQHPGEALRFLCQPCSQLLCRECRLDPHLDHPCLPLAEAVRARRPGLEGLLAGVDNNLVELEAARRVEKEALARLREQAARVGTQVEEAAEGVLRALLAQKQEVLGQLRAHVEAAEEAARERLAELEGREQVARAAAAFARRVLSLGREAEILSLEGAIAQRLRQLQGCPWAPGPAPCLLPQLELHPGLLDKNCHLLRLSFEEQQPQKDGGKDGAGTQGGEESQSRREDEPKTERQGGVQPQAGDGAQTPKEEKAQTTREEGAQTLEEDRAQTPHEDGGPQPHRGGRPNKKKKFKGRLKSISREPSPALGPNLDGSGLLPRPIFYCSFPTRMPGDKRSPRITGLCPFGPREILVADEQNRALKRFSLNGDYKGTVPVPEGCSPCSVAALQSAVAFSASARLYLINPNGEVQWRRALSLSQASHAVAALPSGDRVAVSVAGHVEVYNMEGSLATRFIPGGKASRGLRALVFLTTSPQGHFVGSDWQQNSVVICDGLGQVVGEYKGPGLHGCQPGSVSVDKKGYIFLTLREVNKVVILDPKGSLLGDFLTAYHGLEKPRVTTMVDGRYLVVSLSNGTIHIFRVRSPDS
UniProt Q99622: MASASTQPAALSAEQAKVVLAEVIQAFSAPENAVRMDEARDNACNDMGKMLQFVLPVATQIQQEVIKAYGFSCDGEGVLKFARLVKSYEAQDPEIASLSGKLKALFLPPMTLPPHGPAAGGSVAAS

Compound: Nc1ncnc2c1ncn2[C@@H]1O[C@H](COP(=O)(O)OP(=O)(O)OP(=O)(O)O)[C@@H](O)[C@H]1O [adenosine triphosphate]
Experiment: NP40-soluble protein abundance relative to vehicle (solubility fold change) (ratio); higher = more soluble protein in presence of ATP
Summary of the method: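 Eight concentrations, 0.1 to 10 mM, were tested on Jurkat crude lysate for 10 min at room temperature and then 3 min at 37 °C, in three independent experiments. The lysate was solubilised with 0.8% NP40 and benzonase, ultracentrifuged, and the supernatant TMT-labelled for LC-MS/MS. Each value is the fold change against the detergent-processed vehicle in its own replicate, from vsn-normalised intensities.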

Target	NP40-soluble protein abundance (concentration: 1mM)	NP40-soluble protein abundance (concentration: 2mM)	NP40-soluble protein abundance (concentration: 4mM)	NP40-soluble protein abundance (concentration: 6mM)	NP40-soluble protein abundance (concentration: 8mM)	NP40-soluble protein abundance (concentration: 10mM)
MED18 (UniProt Q9BUE0)	1.03 ± 0.1	0.997 ± 0.048	0.97 ± 0.049	1.02 ± 0.043	1.02 ± 0.026	0.97 ± 0.072
UniProt Q9BXS6 and related entries	0.973 ± 0.063	1.01 ± 0.014	1.04 ± 0.053	1.04 ± 0.044	1.05 ± 0.049	1.04 ± 0.032
THUMPD3 (UniProt Q9BV44)	0.981 ± 0.089	0.968 ± 0.054	0.935 ± 0.064	0.937 ± 0.076	0.949 ± 0.058	0.955 ± 0.056
BTBD2 (UniProt Q9BX70)	1.05 ± 0.053	0.952 ± 0.011	0.9572 ± 0.0019	1.02 ± 0.052	0.969 ± 0.013	0.957 ± 0.082
UniProt Q9BXM9 and related entries	0.975 ± 0.043	0.938 ± 0.072	0.96 ± 0.045	0.942 ± 0.085	0.924 ± 0.08	0.95 ± 0.036
C16orf70 (UniProt Q9BSU1)	0.975 ± 0.098	0.992 ± 0.097	0.985 ± 0.081	0.898 ± 0.12	1.01 ± 0.096	0.971 ± 0.029
TRMT61B (UniProt Q9BVS5)	1 ± 0.087	1.02 ± 0.087	1.03 ± 0.047	1 ± 0.07	1.01 ± 0.042	1.05 ± 0.045
TARS2 (UniProt Q9BW92)	1.06 ± 0.09	1.05 ± 0.082	1.06 ± 0.071	0.982 ± 0.079	1.05 ± 0.042	1.05 ± 0.048
UniProt Q9BUB5 and related entries	1.03 ± 0.028	1.02 ± 0.031	1.01 ± 0.011	1.01 ± 0.03	0.991 ± 0.05	0.998 ± 0.043
SETD2 (UniProt Q9BYW2)	1.04 ± 0.065	1.08 ± 0.02	1.09 ± 0.044	1.12 ± 0.053	1.04 ± 0.033	1.06 ± 0.012
DDA1 (UniProt Q9BW61)	0.933 ± 0.05	0.935 ± 0.078	0.932 ± 0.06	0.978 ± 0.13	0.905 ± 0.044	0.911 ± 0.07
BUD13 (UniProt Q9BRD0)	1.11 ± 0.086	1.12 ± 0.056	1.18 ± 0.068	1.23 ± 0.066	1.2413 ± 0.0006	1.22 ± 0.081
UniProt Q99766	1.03 ± 0.071	0.98 ± 0.049	0.999 ± 0.036	0.982 ± 0.06	0.907 ± 0.017	0.946 ± 0.045
NIPSNAP1 (UniProt Q9BPW8)	1.03 ± 0.12	0.946 ± 0.061	0.959 ± 0.058	0.907 ± 0.12	0.984 ± 0.039	0.943 ± 0.072
KATNB1 (UniProt Q9BVA0)	0.963 ± 0.016	0.994 ± 0.043	0.985 ± 0.011	0.946 ± 0.018	0.9689 ± 0.0088	0.977 ± 0.017
RBM4 (UniProt Q9BWF3)	0.982 ± 0.083	1.02 ± 0.07	1.01 ± 0.11	1.04 ± 0.13	0.995 ± 0.082	1.04 ± 0.086
TIPIN (UniProt Q9BVW5)	0.954 ± 0.057	0.924 ± 0.018	0.923 ± 0.044	0.953 ± 0.064	0.91 ± 0.038	0.823 ± 0.089
SLC12A9 (UniProt Q9BXP2)	0.964 ± 0.089	0.984 ± 0.081	1 ± 0.13	0.991 ± 0.049	1.01 ± 0.031	1 ± 0.023
SORT1 (UniProt Q99523)	0.912 ± 0.016	0.942 ± 0.016	0.923 ± 0.009	0.949 ± 0.024	0.893 ± 0.012	0.907 ± 0.024
GTPBP4 (UniProt Q9BZE4)	1.22 ± 0.03	1.261 ± 0.011	1.38 ± 0.067	1.38 ± 0.068	1.42 ± 0.059	1.51 ± 0.059
TMED9 (UniProt Q9BVK6)	1.02 ± 0.12	1 ± 0.077	0.995 ± 0.072	0.964 ± 0.089	0.995 ± 0.077	0.959 ± 0.056
SPATA5L1 (UniProt Q9BVQ7)	1.4 ± 0.049	1.43 ± 0.092	1.46 ± 0.14	1.42 ± 0.14	1.51 ± 0.2	1.51 ± 0.14
PI4K2A (UniProt Q9BTU6)	0.987 ± 0.077	1 ± 0.068	0.972 ± 0.047	0.936 ± 0.1	0.986 ± 0.039	0.975 ± 0.06
UniProt Q9BW91 and related entries	1.04 ± 0.073	1.03 ± 0.069	1.05 ± 0.12	1.04 ± 0.069	1.04 ± 0.13	1.02 ± 0.086
UniProt Q9BUL5 and related entries	0.929 ± 0.02	0.924 ± 0.022	0.919 ± 0.031	0.956 ± 0.022	0.908 ± 0.029	0.933 ± 0.035
PARK7 (UniProt Q99497)	0.964 ± 0.029	0.935 ± 0.012	0.888 ± 0.024	0.962 ± 0.018	0.894 ± 0.039	0.883 ± 0.033
ULBP2 (UniProt Q9BZM5)	1 ± 0.04	0.986 ± 0.046	0.987 ± 0.041	1.01 ± 0.027	0.966 ± 0.087	0.951 ± 0.062
UniProt Q9BQS8 and related entries	0.983 ± 0.033	0.974 ± 0.01	0.953 ± 0.032	0.97 ± 0.013	0.9267 ± 0.0043	0.969 ± 0.021
TRIM56 (UniProt Q9BRZ2)	1.08 ± 0.065	1.06 ± 0.086	1.18 ± 0.078	1.2 ± 0.11	1.29 ± 0.08	1.37 ± 0.095
UniProt Q99622 and related entries	0.872 ± 0.19	0.865 ± 0.2	0.889 ± 0.15	0.917 ± 0.18	0.881 ± 0.08	0.791 ± 0.18

Look-ups from the results shown.
In NP40-soluble protein abundance (concentration: 8mM), SORT1 (UniProt Q99523) has 0.893 ± 0.012
In NP40-soluble protein abundance (concentration: 1mM), UniProt Q9BQS8 and related entries has 0.983 ± 0.033
